Measured values reported in PMC7546003.
These are yes or no findings as the source states them, for the method shown. In cells and extracts the contact can be indirect. Some entries that bind do so weakly or less than the wild type.

Biological target: T1, cytochrome b245 light chain/p22^phox (mouse (endogenous in RPE-choroid tissue of C57BL/6 mice)) (UniProt Q61462)
T1 sequence: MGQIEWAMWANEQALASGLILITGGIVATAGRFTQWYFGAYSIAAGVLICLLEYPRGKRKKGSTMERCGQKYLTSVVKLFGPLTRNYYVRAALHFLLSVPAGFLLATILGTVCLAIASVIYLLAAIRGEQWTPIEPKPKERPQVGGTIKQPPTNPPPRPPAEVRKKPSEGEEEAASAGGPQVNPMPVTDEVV
Assay: co-IP; Pierce Co-Immunoprecipitation Kit; endogenous proteins, mouse tissue taken 4 days after intravitreal injection of Aβ1-40 or PBS; antibodies for immunoprecipitation the same as for Western blot (p22^phox ab75941, NOX4 PA5-72816)

binding: binds
B1: NOX4 (protein, UniProt Q9JHI8 1-578)
chain: MAVSWRSWLANEGVKHLCLLIWLSLNVLLFWKTFLLYNQGPEYYYIHQMLGLGLCLSRASASVLNLNCSLILLPMCRTVLAYLRGSQKVPSRRTRRLLDKSKTLHITCGVTICIFSGVHVAAHLVNALNFSVNYSEDFLELNAARYQNEDPRKLLFTTIPGLTGVCMVVVLFLMVTASTYAIRVSNYDIFWYTHNLFFVFYMLLLLHVSGGLLKYQTNVDTHPPGCISLNQTSSQNMSIPDYVSEHFHGSLPRGFSKLEDRYQKTLVKICLEEPKFQAHFPQTWIWISGPLCLYCAERLYRCIRSNKPVTIISVINHPSDVMELRMIKENFKARPGQYIILHCPSVSALENHPFTLTMCPTETKATFGVHFKVVGDWTERFRDLLLPPSSQDSEILPFIHSRNYPKLYIDGPFGSPFEESLNYEVSLCVAGGIGVTPFASILNTLLDDWKPYKLRRLYFIWVCRDIQSFQWFADLLCVLHNKFWQENRPDFVNIQLYLSQTDGIQKIIGEKYHTLNSRLFIGRPRWKLLFDEIAKCNRGKTVGVFCCGPSSISKTLHSLSNRNNSYGTKFEYNKESFS
